Values from PubChem BioAssay AID686943 (Drosophila RNAi Screening Center, 2013)

- Screen: 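Fly genes whose loss alters ERK activation after insulin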 (primary screen)
- Cell system: Drosophila S2R+ haemocyte-like cells expressing YFP-tagged ERK (Rolled)
- Reagents: long dsRNA against Drosophila genes
- Challenge: insulin stimulation versus unstimulated cells; dose and duration not given
- Read-out: 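Antibody staining for doubly phosphorylated ERK divided by ERK-YFP signal, as plate z-scores, in insulin-treated and untreated cells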
- Scale: replicate 1, z-score of dpERK with insulin: higher = more active ERK per ERK-YFP after insulin
The screen tested about 23,000 reagents; shown is an unselected part of those with a known target gene and a result. 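Extra replicates exist only for a retested subset of genes; insulin dose and duration not given; both raised and lowered dpERK matter.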 A plus sign joins genes that one reagent is predicted to hit. Further read-outs or replicates are left out here. The record does not give: the amount of reagent, the time to read-out.

replicate 1, z-score of dpERK with insulin, by gene and reagent
Atpalpha (GeneID 48971): DRSC14119 0.01
RpS29 + snoRNA:Psi18S-1275: DRSC16433 -1.6
aux (GeneID 40527): DRSC12161 -0.23
EndoG (GeneID 36309): DRSC07292 0.38; DRSC22746 -0.36
can (GeneID 45432): DRSC10664 -0.04
CG15200 (GeneID 32060): DRSC19647 -0.26
hop (GeneID 32080): DRSC20340 0.72
Hmt4-20 (GeneID 31015): DRSC18482 -1.29
CG11404 (GeneID 40474): DRSC11656 0.7
CG32071 (GeneID 39246): DRSC22298 -0.07
msl-3 (GeneID 38779): DRSC11371 0.16
CG8888 (GeneID 36293): DRSC07294 -0.32; DRSC07295 -1.2

Targets above whose target name starts with C or c (6):
replicate 1, z-score of dpERK with insulin, by gene and reagent
can (GeneID 45432): DRSC10664 -0.04
CG15200 (GeneID 32060): DRSC19647 -0.26
CG11404 (GeneID 40474): DRSC11656 0.7
CG32071 (GeneID 39246): DRSC22298 -0.07
CG8888 (GeneID 36293): DRSC07294 -0.32; DRSC07295 -1.2

The list goes on:
replicate 1, z-score of dpERK with insulin, by gene and reagent
Gyf (GeneID 43842): DRSC17202 0.06
MtnF (GeneID 12798528): DRSC13683 0.21
Pi3K59F (GeneID 37733): DRSC04640 -0.05
CG4198 (GeneID 31445): DRSC18354 0.62
mdy (GeneID 44887): DRSC01559 1; DRSC02250 1.24
CG8839 (GeneID 36340): DRSC07285 -0.02
Mcm3 (GeneID 31449): DRSC18679 -1.08
CG7987 (GeneID 41768): DRSC16357 0.93
